Measurements: patent US20030138848A1, “3D structure of polypeptides containing a TPR-structure motif with chaperone-binding function, crystals thereof and compounds for inhibition of said polypeptides” (priority 2000, published 2003)
No constants are given. Whether binding was seen depends on the method and setting. Some entries that bind do so weakly or less than the wild type.

Biological target: TPR1 domain of human Hop protein (codons 1-118) (human) (UniProt P31948)
Assay: ITC, 25 °C

## GPTIEEVD (acetylated N-terminus) [Hsp70 peptide GPTIEEVD]
  binding: binds

## GASSGPTIEEVD (acetylated N-terminus) [C-terminal dodecamer peptide of Hsp70, …]
  binding: binds
